Source: patent publication US20030082190A1
These are yes or no findings as the source states them, for the method shown. Some entries that bind do so weakly or less than the wild type. Sequences can lack the tags named with a protein.

Amino acid sequences for entries named in this document (tags omitted). Residues count along the entry.
UniProt P31994, residues 43-310: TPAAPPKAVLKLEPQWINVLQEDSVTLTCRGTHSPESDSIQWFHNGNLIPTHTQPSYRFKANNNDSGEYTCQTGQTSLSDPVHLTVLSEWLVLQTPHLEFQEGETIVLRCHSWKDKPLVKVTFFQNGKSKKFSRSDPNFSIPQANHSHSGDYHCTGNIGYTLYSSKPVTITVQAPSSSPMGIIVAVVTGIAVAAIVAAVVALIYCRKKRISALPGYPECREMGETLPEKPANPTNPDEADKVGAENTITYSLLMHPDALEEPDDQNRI
UniProt P12319, residues 26-257: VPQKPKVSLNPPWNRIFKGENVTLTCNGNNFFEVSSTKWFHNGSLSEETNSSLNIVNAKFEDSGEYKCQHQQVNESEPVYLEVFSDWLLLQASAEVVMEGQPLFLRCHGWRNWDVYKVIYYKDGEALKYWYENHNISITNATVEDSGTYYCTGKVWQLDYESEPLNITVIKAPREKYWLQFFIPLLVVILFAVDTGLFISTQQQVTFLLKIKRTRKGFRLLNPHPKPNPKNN

Legend:
[1] = target: human FcγRII (FcγRIIb) expressed on HMC-1 cells (human) (UniProt P31994); test: flow cytometry on HMC-1 cells
[2] = target: high-affinity IgE receptor FcεRI expressed on transfected CHO 3D10 cells (UniProt P12319); test: flow cytometry on CHO 3D10 cells
[3] = target: human FcγRII (FcγRIIb) expressed on HMC-1 cells (human) (UniProt P31994); test: flow cytometry on HMC-1 cells, FITC anti-human IgE or IgG detection
[4] = target: high-affinity IgE receptor FcεRI expressed on transfected CHO 3D10 cells (UniProt P12319); test: flow cytometry on FcεRI transfected CHO 3D10 cells, FITC anti-human IgE or IgG detection

Measured: binding

B1: γhinge-CHγ2-CHγ3-(Gly4Ser)3-CHε2-CHε3-CHε4 fusion molecule (GE2) (Fc fusion)
chain: EPKSCDKTHTCPPCPAPELLGGPSVFLFPPKPKDTLMISRTPEVTCVVVDVSHEDPEVKFNWYVDGVEVHNVKTKPREEQYNSTYRVVSVLTVLHQNWMNGKEYKCKVSNKALPAPIEKTISKAKVQPREPQVYTLPPSRDELTKNQVSLTCLVKGFYPSDIAVEWESNGQPENNYKTTPPVLDSVGSFFLYSKLTVDKSRWQQGNVFSCSVMHEALHNHYQQRSLSLSPGKVEGGGGSGGGGSGGGGSFTPPTVKILQSSCDGGGHFPPTIQLLCLVSGYTPGTINITWLEDGQVMDVDLSTASTTQEGELASTQSELTLSQKHWLSDRTYTCQVTYQGHTFEDSTKKCADSNPRGVSAYLSRPSPFDLFIRKSPTITCLVVDLAPSKGTVNLTWSRASGKPVNHSTRKEEKQRNGTLTVTSTLPVGTRDWIEGETYQCRVTHPHLPRALMRSTTKTSGPRAAPEVYAFATPEWPGSRDKRTLACLIQNFMPEDISVQWLHNEVQLPDARHSTTQPRKTKGSGFFVFSRLEVTRAEWEQKDEFICRAVHEAASPSQTVQRAVSVNPGK
binds: [1] | [2] | [3] | [4]
